Experimental data published in PubChem BioAssay AID2551 (National Center for Advancing Translational Sciences (NCATS), 2010).
The campaign covered roughly 310,000 compounds. About 17,000 (5.5%) were called active. Inconclusive results, whose numbers are uncertain, are shown with a selection of clear calls. Calls follow the shape of the dose curve; as a rule, active = well fitted inhibition curve with a large enough effect; inconclusive = small, poorly fitted or top-dose-only effect, or effect the other way; inactive = no such curve, though single readings can be large or run the other way. Where the call is inconclusive, the potency comes from a doubtful curve fit.

Protein sequences, listed by entry. Tags and fused reporters are not part of them. Lines headed by an entry give the natural chain unless they say otherwise; changes in a name come on top.
UniProt P51450: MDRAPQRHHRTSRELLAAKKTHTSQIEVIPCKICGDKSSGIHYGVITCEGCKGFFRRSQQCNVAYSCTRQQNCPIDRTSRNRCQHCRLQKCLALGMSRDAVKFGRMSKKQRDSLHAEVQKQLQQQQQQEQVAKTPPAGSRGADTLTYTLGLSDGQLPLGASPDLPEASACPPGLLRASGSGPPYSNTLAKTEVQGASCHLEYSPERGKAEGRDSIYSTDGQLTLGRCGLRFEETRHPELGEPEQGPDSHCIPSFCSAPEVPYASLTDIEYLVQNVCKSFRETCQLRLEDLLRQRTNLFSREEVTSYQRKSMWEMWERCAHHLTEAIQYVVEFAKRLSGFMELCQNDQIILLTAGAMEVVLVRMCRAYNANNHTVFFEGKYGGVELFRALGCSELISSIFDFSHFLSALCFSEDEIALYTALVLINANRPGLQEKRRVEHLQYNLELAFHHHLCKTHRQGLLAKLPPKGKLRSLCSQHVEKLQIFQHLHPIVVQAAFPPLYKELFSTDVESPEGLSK

molecular target: Nuclear receptor ROR-gamma (Mus musculus) (UniProt P51450); assay: qHTS for inhibitors of ROR gamma transcriptional activity; settings: Drosophila S2 Gal4-RORgamma UAS-luciferase reporter, 20 h; activity change, negative = inhibition: at 53.6 µM (top of the series); also: nearly all actives have a fitted effect of over 60% in size
How it was run: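 ROR gamma transcriptional activity was tracked as Gal4-UAS luciferase output in stably transfected Drosophila Schneider cells, with compound added 1 hr before 700 uM copper sulfate induction and a 20 hr ambient-temperature incubation.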
% is scaled to controls: 0 for no effect and ±100 for the full control effect; potency is read from the fitted curve at half-maximal effect.

SMILES | Potency | activity change, negative = inhibition
O=[N+]([O-])c1ccc(Cl)c(/C=N/NC(=S)Nc2ccccc2)c1 | active: 0.355 µM | –
CC(=O)Nc1cccc(C(=O)/C=C/c2ccc(Br)cc2)c1 | inconclusive: 20 µM [inhibitor, single point] | –
COC(=O)c1ccc(N2C(=O)CC(N(C)CCc3ccc(OC)c(OC)c3)C2=O)cc1 (configuration not stated) | inconclusive: 12.6 µM [inhibitor, partial curve, poor fit] | –
COc1ccccc1Nc1nc(N)nc(CSc2ncccn2)n1 | inconclusive: 14.1 µM [activator, partial curve] | –
CCN(CC)c1nc(-c2ccc(Cl)cc2)cc(C(F)(F)F)c1C#N | – | inactive: -2.24%
CN1CCN(Cc2c(O)ccc3occ(C(=O)c4ccccc4)c23)CC1 | – | inactive: 5%
CNc1ccccc1-n1ccc(-c2ccccc2)n1 | inconclusive: 35.5 µM [inhibitor, single point] | –
COc1ccc(/C=C2/SC(=S)N(CCCC(=O)Nc3ccccc3C(=O)O)C2=O)cc1 | active: 1.41 µM | –
O=C(CC(=O)N/N=C/c1ccccc1O)NCc1cccnc1 | inconclusive: 20 µM [inhibitor, single point] | –
O=C(NCc1ccccc1)c1n[nH]nc1-c1ccccc1O | inconclusive: 2.82 µM [activator, single point] | –
CN(C)S(=O)(=O)c1ccc(Cl)c(NC(=O)COC(=O)c2ccc3c(c2)NC(=O)CS3)c1 | – | inactive: 1.7%
Cn1c(=O)c2c(nc(OCc3cccnc3)n2Cc2ccccc2)n(C)c1=O | inconclusive: 5.01 µM [activator, full curve, poor fit] | –
COc1ccc(S(=O)(=O)NCc2ccco2)cc1N(C)S(=O)(=O)c1ccccc1 | inconclusive: 12.6 µM [activator, partial curve] | –
COc1ccccc1NC(=O)C(=N\O)/C(C)=N/O | inconclusive: 17.8 µM [inhibitor, single point] | –
COCc1c(C#N)c(NCCc2ccc(F)cc2)nc(C)c1[N+](=O)[O-] | inconclusive: 12.6 µM [activator, single point] | –
CCOC(=O)CCN1C(=O)[C@H]2[C@H]3[C@H](O)[C@H](O)C/C(=N/OCc4ccccc4)[C@H]3CC[C@@H]2C1=O | – | inactive: -7.9% [at 10 µM]
Cc1cc(NS(=O)(=O)c2ccc(NC(=O)COc3ccc(Cl)c(C)c3)cc2)no1 | – | inactive: -29%
O=C(CNC(=S)N(Cc1ccccc1)Cc1ccccc1F)NCCc1ccc(Cl)cc1 | inconclusive: 22.4 µM [inhibitor, single point] | –
O=C(CN1CCN(c2ccccn2)CC1)Nc1ccc(OCc2ccccc2)cc1 | inconclusive: 35.5 µM [activator, single point] | –
O=[N+]([O-])c1cc(/C=N/O)ccc1Sc1ccccc1 | inconclusive: 35.5 µM [inhibitor, single point] | –
O=C(COC(=O)/C=C/c1cn(-c2ccccc2)nc1-c1cccnc1)Nc1ccc(Cl)cc1Cl | inconclusive: 5.62 µM [activator, partial curve] | –
Cc1ccc(NC(=O)c2ccc(Cl)c(N3C(=O)C=CC3=O)c2)cc1 | active: 7.94 µM | –
O=C(Nc1ccc2c(c1)OCO2)c1c[nH]c(=O)n(-c2ccc(F)cc2)c1=O | – | inactive: 35.9%
CCn1c(-c2cc3c(C(F)(F)F)nn(C)c3s2)n[nH]c1=S | inconclusive: 0.0891 µM [inhibitor, single point] | –

SMILES | Potency | activity change, negative = inhibition
COc1ccc(NC(C)=O)cc1NC(=O)c1ccc2ccccc2c1 | inconclusive: 35.5 µM [activator, single point] | –
COc1ccc(-c2n(Cc3ccccc3)c3ccccc3[n+]2Cc2ccccc2)cc1 | active: 5.62 µM | –
COc1cccc(-c2csc(N3CCN(C(=O)C4CCCCC4)CC3)n2)c1 | inconclusive: 35.5 µM [inhibitor, single point] | –
CCOc1ccccc1Nc1nnc(SCC(=O)N2CCCC2)s1 | – | inactive: 23.4%
CCc1nnc(NC(=O)CSc2nnc(COc3ccccc3C)o2)s1 | active: 11.2 µM | –
CCc1ccc(NS(=O)(=O)c2ccc3c(c2)oc(=O)n3C)cc1 | inconclusive: 3.16 µM [activator, partial curve, poor fit] | –
COC(=O)c1c(C)[nH]c(C(=O)CC#N)c1C | inconclusive: 17.8 µM [inhibitor, single point] | –
COCCn1c(=O)c(-c2ccc(OC)cc2)nc2cnc(Oc3ccc(OC)cc3)nc21 | – | inactive: -8.89%
CN(Cc1cccc2cnccc12)C(=O)CCc1nnc(CCc2ccccc2)o1 | inconclusive: 35.5 µM [inhibitor, single point] | –
Cc1cc(C)c(S(=O)(=O)NCC2CCC(C(=O)NCc3ccccn3)CC2)c(C)c1 (configuration not stated) | – | inactive: 17.5%
CCCn1nnnc1NC(=O)COc1ccc(Cl)c(C)c1 | active: 5.01 µM | –
O=C(Nc1nc(-c2ccc3c(c2)OCCO3)cs1)c1ccc(S(=O)(=O)N2CCCCC2)cc1 | – | inactive: 11.5%
O=C(N/N=C/c1ccccn1)c1ccc(Cl)c(Cl)c1 | inconclusive: 0.562 µM [inhibitor, full curve, poor fit] | –
CCN(CC(=O)Nc1cccc(S(=O)(=O)N2CCCC2)c1)CC(=O)Nc1ccccc1OC | active: 11.2 µM | –
CCCOc1ccc2cc(-c3ccccn3)c(=O)oc2c1 | active: 7.08 µM | –
Cn1ccnc1SCc1cn2ccccc2n1 | inconclusive: 11.2 µM [inhibitor, single point] | –
CC(C)(C)c1ccc(/C=N/Nc2ccc(C(=O)O)cc2)cc1 | active: 0.02 µM | –
COc1ccccc1S(=O)(=O)Cc1ccc(C(=O)NCCCN2CCN(c3ccc(F)cc3)CC2)o1 | – | inactive: -2.3%
COc1ccc(CNC(=O)CN2CCN(c3ccccc3O)CC2)cc1OC | – | inactive: 0.625%
COc1cc2ccccc2cc1C(=O)Nc1ccc(NC(=O)c2cccs2)cc1 | inconclusive: 35.5 µM [inhibitor, single point] | –
O=c1c2ccccc2nnn1CSc1ccc2ccccc2n1 | inconclusive: 35.5 µM [activator, partial curve] | –
COC(=O)c1ccc(C#CC(NP(=O)(c2ccccc2)c2ccccc2)c2ccccc2)cc1 (configuration not stated) | inconclusive: 35.5 µM [activator, single point] | –
OC[C@@H]1[C@@H](c2ccc(Cl)cc2)C(c2ccccc2)=NN1c1ccccc1 | inconclusive: 4.47 µM [inhibitor, partial curve] | –
COC(=O)c1ccc(NC(=S)N2CCN(Cc3ccc(Cl)cc3)CC2)cc1 | inconclusive: 11.2 µM [inhibitor, single point] | –

SMILES | Potency | activity change, negative = inhibition
O=C(CSc1n[nH]c(-c2ccccc2)n1)NC(=O)NCc1ccco1 | inconclusive: 15.8 µM [activator, single point] | –
Cc1cc(C=C2C(=O)c3ccccc3C2=O)c(C)n1-c1ccccc1 | active: 0.0631 µM | –
CCOc1ccc(-c2csc(NC(=O)CSC3=NC(=O)CN3C(C)=O)n2)c2ccccc12 | active: 11.2 µM | –
COc1ccc(/C=C2\SC(=S)N(CCCC(=O)Nc3ccc(O)cc3)C2=O)cc1 | active: 1.41 µM | –
Cc1ccc(S(=O)(=O)NCCC(=O)N2CCN(c3cccc(Cl)c3)CC2)cc1C | inconclusive: 35.5 µM [activator, single point] | –
CCOC(=S)SCc1cn2ccccc2n1 | inconclusive: 12.6 µM [inhibitor, single point] | –
CCOC(=O)C1=C(O)/C(=C\c2cccc(OC)c2)N=C1C | – | inactive: -9.74%
CCN(CC)c1ccc(NC(=S)Nc2ccc(F)cc2)cc1 | active: 8.91 µM | –
CCOC(=O)c1c(-c2ccc(C)o2)csc1NC(=S)NC(=O)c1ccccc1Br | active: 7.94 µM | –
Cc1nnc(NC(=O)CSC2CCCCC2)s1 | active: 22.4 µM | –
Cc1cc(NS(=O)(=O)c2ccc(NC(=S)NC(=O)c3ccc(Br)cc3)cc2)no1 | inconclusive: 1.12 µM [activator, partial curve] | –
c1ccc2[nH]c3cc4ncnc4cc3nc2c1 | inconclusive: 4.47 µM [activator, single point] | –
Cc1cc(Cl)ccc1OCC(=O)N/N=C/c1ccncc1 | – | inactive: 17.5%
COc1ccc(CNC(=O)Cc2nn(C)c(=O)c3ccccc23)cc1 | inconclusive: 5.01 µM [activator, single point] | –
CCOc1ccc2nc(NCCCNS(=O)(=O)c3ccc(C)cc3)c(C#N)cc2c1 | inconclusive: 7.08 µM [inhibitor, full curve, poor fit] | –
Cc1ccc2nc(NC(=O)C3CCCN(S(=O)(=O)c4cccc5nonc45)C3)sc2c1 (configuration not stated) | inconclusive: 22.4 µM [activator, single point] | –
CC1CCCN(S(=O)(=O)c2ccc3c(c2)C(C)(C)C(=O)N3C)C1 (configuration not stated) | inconclusive: 35.5 µM [activator, single point] | –
c1ccc(-c2nc(NCc3ccco3)c3ccccc3n2)nc1 | active: 1.26 µM | –
Cc1ccc(OCC(=O)Nc2nnc(S(=O)(=O)N3CCC(C)CC3)s2)cc1 | – | inactive: 1.67%
CCOc1cc(/C=N\NC(=O)c2ccc(NC(=O)C(C)(C)C)cc2)ccc1OC(=O)c1ccc(C)cc1 | – | inactive: -1.07%
COc1ccccc1-c1ccc2ncnc(NCc3cccnc3)c2c1 | inconclusive: 35.5 µM [inhibitor, single point] | –
C/C(=N\NC(=O)c1cccc(N/N=C(\C)c2ccccc2)c1)c1ccccc1 | inconclusive: 35.5 µM [inhibitor, single point] | –
COc1ccc(/C=C2/SC(=O)N(CCC(=O)Nc3ccccc3C(=O)O)C2=S)cc1 | – | inactive: -10.5%
Cc1cc(C)c2cc(CN(CCCN(C)C)C(=S)NCc3ccccc3)c(=O)[nH]c2c1 | inconclusive: 35.5 µM [inhibitor, single point] | –

Gathered by group: those above containing a thiophene ring, fused or not
SMILES | Potency | activity change, negative = inhibition
CCn1c(-c2cc3c(C(F)(F)F)nn(C)c3s2)n[nH]c1=S | inconclusive: 0.0891 µM [inhibitor, single point] | –
COc1cc2ccccc2cc1C(=O)Nc1ccc(NC(=O)c2cccs2)cc1 | inconclusive: 35.5 µM [inhibitor, single point] | –
CCOC(=O)c1c(-c2ccc(C)o2)csc1NC(=S)NC(=O)c1ccccc1Br | active: 7.94 µM | –
